Test results as given in PMC2997501, “Different Residues on the Surface of the Methanothermobacter thermautotrophicus MCM Helicase Interact with Single- and Double-Stranded DNA” (Archaea, 2010).
Numbering of substitutions follows the chain as printed. The exact form of at least one protein or probe is not confirmed. For part of these data: A weaker result is weaker than the reference pair of the same experiment. At least one verdict was read from the data and is not stated in words by the source. Where a protein sequence is shown, tags need not be part of it.

Columns and labels:
Experiment in all cases: filter binding
[1] = biological target: T1, MCM D212N (Methanothermobacter thermautotrophicus) (UniProt O27798); details: 10 mM Mg2+, 25 mM Hepes-NaOH pH 7.5, 2 mM DTT, 10 mM MgCl2, 100 ug/ml BSA, 50 fmol 32P-DNA in 20 ul, 10/30/90 nM MCM monomer (25 nM for the ATP test), 60 C, 10 min, recombinant protein, residues 1-666, protein details: C-terminal His6, label: 32P (T4 PNK, 5' end)
T1 sequence (looked up): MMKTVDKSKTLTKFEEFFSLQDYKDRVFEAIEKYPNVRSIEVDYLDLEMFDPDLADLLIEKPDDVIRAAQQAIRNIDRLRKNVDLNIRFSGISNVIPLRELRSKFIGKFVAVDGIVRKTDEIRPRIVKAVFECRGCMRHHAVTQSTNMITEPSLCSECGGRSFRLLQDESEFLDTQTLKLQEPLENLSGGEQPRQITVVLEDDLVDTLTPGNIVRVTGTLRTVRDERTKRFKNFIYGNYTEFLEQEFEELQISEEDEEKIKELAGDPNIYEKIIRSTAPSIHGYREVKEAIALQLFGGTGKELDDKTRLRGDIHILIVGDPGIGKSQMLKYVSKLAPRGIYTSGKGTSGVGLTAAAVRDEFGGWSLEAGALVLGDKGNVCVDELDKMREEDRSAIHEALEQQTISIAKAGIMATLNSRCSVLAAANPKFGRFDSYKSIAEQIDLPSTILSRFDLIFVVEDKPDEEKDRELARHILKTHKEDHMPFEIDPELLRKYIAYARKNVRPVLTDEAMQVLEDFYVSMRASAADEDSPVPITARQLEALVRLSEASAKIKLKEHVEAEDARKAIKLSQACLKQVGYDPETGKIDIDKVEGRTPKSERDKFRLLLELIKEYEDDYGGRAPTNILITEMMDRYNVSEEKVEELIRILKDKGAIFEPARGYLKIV

[2] = biological target: T2, MCM G211A (Methanothermobacter thermautotrophicus) (UniProt O27798); details: 1 mM ATP, 10 mM Mg2+; 25 mM Hepes-NaOH pH 7.5, 2 mM DTT, 10 mM MgCl2, 100 ug/ml BSA, 50 fmol 32P-DNA in 20 ul, 10/30/90 nM MCM monomer (25 nM for the ATP test), 60 C, 10 min; recombinant protein; residues 1-666; protein details: C-terminal His6; label: 32P (T4 PNK, 5' end); single-stranded DNA
T2 sequence (looked up): T1 sequence (looked up) with G211A, N212D

[3] = biological target: T3, MCM G218A (Methanothermobacter thermautotrophicus) (UniProt O27798); details: 1 mM ATP, 10 mM Mg2+; 25 mM Hepes-NaOH pH 7.5, 2 mM DTT, 10 mM MgCl2, 100 ug/ml BSA, 50 fmol 32P-DNA in 20 ul, 10/30/90 nM MCM monomer (25 nM for the ATP test), 60 C, 10 min; recombinant protein; residues 1-666; protein details: C-terminal His6; label: 32P (T4 PNK, 5' end); single-stranded DNA
T3 sequence (looked up): T1 sequence (looked up) with N212D, G218A

[4] = biological target: T4, MCM P210G (Methanothermobacter thermautotrophicus) (UniProt O27798); details: 1 mM ATP, 10 mM Mg2+; 25 mM Hepes-NaOH pH 7.5, 2 mM DTT, 10 mM MgCl2, 100 ug/ml BSA, 50 fmol 32P-DNA in 20 ul, 10/30/90 nM MCM monomer (25 nM for the ATP test), 60 C, 10 min; recombinant protein; residues 1-666; protein details: C-terminal His6; label: 32P (T4 PNK, 5' end); single-stranded DNA
T4 sequence (looked up): T1 sequence (looked up) with P210G, N212D

[5] = biological target: T5, MCM PG210,211GA P210G,G211A (Methanothermobacter thermautotrophicus) (UniProt O27798); details: 10 mM Mg2+, 25 mM Hepes-NaOH pH 7.5, 2 mM DTT, 10 mM MgCl2, 100 ug/ml BSA, 50 fmol 32P-DNA in 20 ul, 10/30/90 nM MCM monomer (25 nM for the ATP test), 60 C, 10 min, recombinant protein, residues 1-666, protein details: C-terminal His6, label: 32P (T4 PNK, 5' end)
T5 sequence (looked up): T1 sequence (looked up) with P210G, G211A, N212D

[6] = biological target: T6, MCM Q176A (Methanothermobacter thermautotrophicus) (UniProt O27798); details: 10 mM Mg2+, 25 mM Hepes-NaOH pH 7.5, 2 mM DTT, 10 mM MgCl2, 100 ug/ml BSA, 50 fmol 32P-DNA in 20 ul, 10/30/90 nM MCM monomer (25 nM for the ATP test), 60 C, 10 min, recombinant protein, residues 1-666, protein details: C-terminal His6, label: 32P (T4 PNK, 5' end), single-stranded DNA
T6 sequence (looked up): T1 sequence (looked up) with Q176A, N212D

[7] = biological target: T7, MCM V214A (Methanothermobacter thermautotrophicus) (UniProt O27798); details: 10 mM Mg2+, 25 mM Hepes-NaOH pH 7.5, 2 mM DTT, 10 mM MgCl2, 100 ug/ml BSA, 50 fmol 32P-DNA in 20 ul, 10/30/90 nM MCM monomer (25 nM for the ATP test), 60 C, 10 min, recombinant protein, residues 1-666, protein details: C-terminal His6, label: 32P (T4 PNK, 5' end)
T7 sequence (looked up): T1 sequence (looked up) with N212D, V214A

[8] = biological target: T8, MCM wild-type (Methanothermobacter thermautotrophicus) (UniProt O27798); details: 10 mM Mg2+, 25 mM Hepes-NaOH pH 7.5, 2 mM DTT, 10 mM MgCl2, 100 ug/ml BSA, 50 fmol 32P-DNA in 20 ul, 10/30/90 nM MCM monomer (25 nM for the ATP test), 60 C, 10 min, recombinant protein, residues 1-666, protein details: C-terminal His6, label: 32P (T4 PNK, 5' end)
T8 sequence (looked up): T1 sequence (looked up) with N212D

| Sequence | binding result ([1]; 1 mM ATP, single-stranded DNA) | binding result ([1]; no ATP, single-stranded DNA) | binding result [2] | binding result [3] | binding result [4] | binding result ([5]; 1 mM ATP, single-stranded DNA) | binding result ([6]; 1 mM ATP) | binding result ([6]; no ATP) | binding result ([7]; 1 mM ATP, single-stranded DNA) | binding result ([8]; 1 mM ATP, single-stranded DNA) | binding result ([8]; no ATP, single-stranded DNA) | binding result ([1]; no ATP) | binding result ([5]; no ATP) | binding result ([7]; no ATP) | binding result ([8]; no ATP) |
| --- | --- | --- | --- | --- | --- | --- | --- | --- | --- | --- | --- | --- | --- | --- | --- |
| GCAGATAACAGTTGTCCTGGAGAACGACCTGGTTGACACCCTCACACCC [49-mer ssDNA] | binds | binds more weakly | binds | binds | binds | binds | binds | binds more weakly | binds | binds | binds | – | – | – | – |
| GCAGATAACAGTTGTCCTGGAGAACGACCTGGTTGACACCCTCACACCC (double strand) [49-mer dsDNA] | – | – | – | – | – | – | – | – | – | – | – | binds more weakly | binds more weakly | binds more weakly | binds |
